Values are relative to the signal before dosing, not to a vehicle control; the signal also falls without drug.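 Labels refer to human fibroblasts, largely primary: uterine (C12385, HUF), lung (H6013), bone (Hs27A), adrenal (HADF), skin (WS1), plus mammary HMF and breast cancer-associated Hs343T. Cancer lines are basal-like or mesenchymal-like triple-negative breast cancer. The paper counts as hits responses shifting over 3x the replicate standard deviation. The tissue of the other fibroblasts is not given here.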
Test system: MDAMB436
Experiment: relative JC-1 red fluorescence (viability) vs pre-drug, coculture with fibroblast (fraction); higher = more viable cancer cells
Procedure: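 JC-1 labelled TNBC cells cocultured 1:1 (1,500 cells each) with CellTrace Violet stained primary or stromal fibroblasts in 384-well plates in FluoroBrite medium, treated with one of 42 anticancer drugs at 0.1, 1, 10 or 100 uM. JC-1 red fluorescence (mitochondrial integrity in cancer cells only) was read by plate reader every 8 h for 72 h. Values are normalised to each well's pre-drug value. The stock of one drug was tenfold lower, so its dose labels may be too high.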

O=NN(CCCl)C(=O)NC1CCCCC1 [Lomustine]
relative JC-1 red fluorescence
Conditions | 8 h | 16 h | 24 h | 32 h | 40 h | 48 h | 56 h | 64 h | 72 h
0.1 µM, coculture fibroblast: C12385 | 0.7331 | 0.694 | 0.665 | 0.588 | 0.548 | 0.537 | 0.531 | 0.527 | 0.527
0.1 µM, coculture fibroblast: H6013 | 0.815 | 0.795 | 0.787 | 0.781 | 0.773 | 0.804 | 0.771 | 0.753 | 0.706
0.1 µM, coculture fibroblast: H6019 | 0.7214 | 0.684 | 0.659 | 0.593 | 0.558 | 0.541 | 0.507 | 0.48 | 0.449
0.1 µM, coculture fibroblast: H6076 | 0.721 | 0.679 | 0.689 | 0.657 | 0.664 | 0.634 | 0.661 | 0.649 | 0.646
0.1 µM, coculture fibroblast: H6231 | 0.6899 | 0.649 | 0.687 | 0.596 | 0.6 | 0.576 | 0.569 | 0.552 | 0.547
0.1 µM, coculture fibroblast: HADF | 0.7815 | 0.7594 | 0.737 | 0.722 | 0.736 | 0.794 | 0.74 | 0.752 | 0.724
0.1 µM, coculture fibroblast: HCFa | 0.773 | 0.744 | 0.718 | 0.696 | 0.687 | 0.707 | 0.65 | 0.642 | 0.592
0.1 µM, coculture fibroblast: HCPF | 0.761 | 0.724 | 0.735 | 0.662 | 0.651 | 0.619 | 0.606 | 0.589 | 0.581
0.1 µM, coculture fibroblast: HHSteC | 0.834 | 0.83 | 0.822 | 0.798 | 0.7908 | 0.785 | 0.722 | 0.697 | 0.641
0.1 µM, coculture fibroblast: HMF | 0.765 | 0.7047 | 0.68 | 0.629 | 0.612 | 0.58 | 0.59 | 0.566 | 0.564
0.1 µM, coculture fibroblast: HPFa | 0.845 | 0.801 | 0.78 | 0.739 | 0.736 | 0.739 | 0.665 | 0.637 | 0.562
0.1 µM, coculture fibroblast: HUF | 0.809 | 0.723 | 0.694 | 0.614 | 0.572 | 0.5467 | 0.525 | 0.5131 | 0.5069
0.1 µM, coculture fibroblast: Hs5 | 0.771 | 0.727 | 0.717 | 0.663 | 0.656 | 0.621 | 0.644 | 0.616 | 0.606
0.1 µM, coculture fibroblast: Hs27A | 0.7897 | 0.749 | 0.743 | 0.736 | 0.719 | 0.805 | 0.698 | 0.685 | 0.607
0.1 µM, coculture fibroblast: Hs343T | 0.772 | 0.71 | 0.693 | 0.648 | 0.635 | 0.604 | 0.599 | 0.592 | 0.582
0.1 µM, coculture fibroblast: WS1 | 0.7511 | 0.692 | 0.659 | 0.568 | 0.536 | 0.513 | 0.4941 | 0.4724 | 0.4707
1 µM, coculture fibroblast: C12385 | 0.8188 | 0.687 | 0.6622 | 0.5755 | 0.5216 | 0.492 | 0.465 | 0.444 | 0.438
1 µM, coculture fibroblast: H6013 | 0.838 | 0.736 | 0.71 | 0.695 | 0.675 | 0.679 | 0.641 | 0.626 | 0.576
1 µM, coculture fibroblast: H6019 | 0.7337 | 0.628 | 0.609 | 0.5389 | 0.4921 | 0.4731 | 0.4419 | 0.4169 | 0.395
1 µM, coculture fibroblast: H6076 | 0.826 | 0.747 | 0.7 | 0.65 | 0.6 | 0.568 | 0.5471 | 0.5291 | 0.515
1 µM, coculture fibroblast: H6231 | 0.754 | 0.653 | 0.623 | 0.556 | 0.522 | 0.487 | 0.4749 | 0.4361 | 0.42025
1 µM, coculture fibroblast: HADF | 0.8123 | 0.6841 | 0.6291 | 0.582 | 0.55052 | 0.548 | 0.498 | 0.485 | 0.451
1 µM, coculture fibroblast: HCFa | 0.787 | 0.696 | 0.657 | 0.616 | 0.588 | 0.5918 | 0.5321 | 0.5183 | 0.466
1 µM, coculture fibroblast: HCPF | 0.805 | 0.719 | 0.69267 | 0.629 | 0.602 | 0.563 | 0.542 | 0.52 | 0.501
1 µM, coculture fibroblast: HHSteC | 0.8453 | 0.7906 | 0.758 | 0.727 | 0.703 | 0.715 | 0.653 | 0.622 | 0.571
1 µM, coculture fibroblast: HMF | 0.808 | 0.704 | 0.662 | 0.616 | 0.598 | 0.561 | 0.546 | 0.529 | 0.507
1 µM, coculture fibroblast: HPFa | 0.862 | 0.788 | 0.743 | 0.7034 | 0.688 | 0.696 | 0.607 | 0.581 | 0.5004
1 µM, coculture fibroblast: HUF | 0.851 | 0.7654 | 0.7595 | 0.691 | 0.642 | 0.615 | 0.589 | 0.573 | 0.573
1 µM, coculture fibroblast: Hs5 | 0.817 | 0.725 | 0.697 | 0.643 | 0.618 | 0.577 | 0.569 | 0.536 | 0.516
1 µM, coculture fibroblast: Hs27A | 0.813 | 0.742 | 0.696 | 0.657 | 0.633 | 0.682 | 0.592 | 0.576 | 0.507
1 µM, coculture fibroblast: Hs343T | 0.787 | 0.676 | 0.629 | 0.585 | 0.56 | 0.516 | 0.501 | 0.49 | 0.48
1 µM, coculture fibroblast: WS1 | 0.7918 | 0.675 | 0.651 | 0.582 | 0.537 | 0.511 | 0.49 | 0.456 | 0.447
10 µM, coculture fibroblast: C12385 | 0.762 | 0.733 | 0.709 | 0.636 | 0.599 | 0.58 | 0.561 | 0.546 | 0.542
10 µM, coculture fibroblast: H6013 | 0.81 | 0.7884 | 0.772 | 0.785 | 0.788 | 0.817 | 0.791 | 0.782 | 0.739
10 µM, coculture fibroblast: H6019 | 0.75523 | 0.7093 | 0.676 | 0.598 | 0.559 | 0.541 | 0.508 | 0.478 | 0.451
10 µM, coculture fibroblast: H6076 | 0.706 | 0.649 | 0.647 | 0.62 | 0.626 | 0.623 | 0.649 | 0.643 | 0.641
10 µM, coculture fibroblast: H6231 | 0.7193 | 0.611 | 0.622 | 0.536 | 0.521 | 0.499 | 0.494 | 0.482 | 0.478
10 µM, coculture fibroblast: HADF | 0.7506 | 0.7168 | 0.686 | 0.661 | 0.653 | 0.681 | 0.625 | 0.626 | 0.589
10 µM, coculture fibroblast: HCFa | 0.811 | 0.797 | 0.782 | 0.754 | 0.752 | 0.782 | 0.73 | 0.739 | 0.696
10 µM, coculture fibroblast: HCPF | 0.684 | 0.647 | 0.663 | 0.594 | 0.594 | 0.567 | 0.561 | 0.549 | 0.551
10 µM, coculture fibroblast: HHSteC | 0.779 | 0.731 | 0.70207 | 0.6718 | 0.6645 | 0.667 | 0.623 | 0.6026 | 0.5664
10 µM, coculture fibroblast: HMF | 0.739 | 0.691 | 0.677 | 0.628 | 0.629 | 0.6 | 0.619 | 0.597 | 0.607
10 µM, coculture fibroblast: HPFa | 0.8422 | 0.805 | 0.781 | 0.736 | 0.73 | 0.738 | 0.665 | 0.646 | 0.57
10 µM, coculture fibroblast: HUF | 0.8022 | 0.73369 | 0.707 | 0.632 | 0.583 | 0.558 | 0.54 | 0.5282 | 0.529
10 µM, coculture fibroblast: Hs5 | 0.688 | 0.648 | 0.64 | 0.594 | 0.59 | 0.5636 | 0.57171 | 0.547 | 0.542
10 µM, coculture fibroblast: Hs27A | 0.792 | 0.764 | 0.745 | 0.723 | 0.708 | 0.791 | 0.689 | 0.675 | 0.597
10 µM, coculture fibroblast: Hs343T | 0.689 | 0.626 | 0.589 | 0.538 | 0.532 | 0.509 | 0.516 | 0.513 | 0.524
10 µM, coculture fibroblast: WS1 | 0.759 | 0.714 | 0.685 | 0.601 | 0.572 | 0.545 | 0.521 | 0.489 | 0.48
100 µM, coculture fibroblast: C12385 | 0.749 | 0.724 | 0.7223 | 0.639 | 0.601 | 0.576 | 0.558 | 0.54 | 0.531
100 µM, coculture fibroblast: H6013 | 0.841 | 0.851 | 0.868 | 0.883 | 0.907 | 0.782 | 0.792 | 0.8196 | 0.809
100 µM, coculture fibroblast: H6019 | 0.7988 | 0.7692 | 0.756 | 0.691 | 0.663 | 0.654 | 0.627 | 0.608 | 0.591
100 µM, coculture fibroblast: H6076 | 0.73137 | 0.678 | 0.678 | 0.633 | 0.625 | 0.608 | 0.637 | 0.637 | 0.644
100 µM, coculture fibroblast: H6231 | 0.825 | 0.734 | 0.778 | 0.691 | 0.665 | 0.622 | 0.627 | 0.59 | 0.587
100 µM, coculture fibroblast: HADF | 0.799 | 0.784 | 0.758 | 0.741 | 0.742 | 0.784 | 0.73 | 0.733 | 0.689
100 µM, coculture fibroblast: HCFa | 0.794 | 0.784 | 0.778 | 0.763 | 0.764 | 0.795 | 0.739 | 0.749 | 0.715
100 µM, coculture fibroblast: HCPF | 0.774 | 0.771 | 0.807 | 0.76 | 0.747 | 0.72 | 0.71 | 0.702 | 0.69
100 µM, coculture fibroblast: HHSteC | 0.81 | 0.831 | 0.824 | 0.798 | 0.815 | 0.835 | 0.778 | 0.769 | 0.724
100 µM, coculture fibroblast: HMF | 0.784 | 0.743 | 0.723 | 0.665 | 0.64 | 0.603 | 0.608 | 0.594 | 0.6
100 µM, coculture fibroblast: HPFa | 0.854 | 0.813 | 0.791 | 0.748 | 0.748 | 0.759 | 0.693 | 0.679 | 0.618
100 µM, coculture fibroblast: HUF | 0.861 | 0.783 | 0.77 | 0.687 | 0.645 | 0.614 | 0.595 | 0.583 | 0.582
100 µM, coculture fibroblast: Hs5 | 0.789 | 0.734 | 0.708 | 0.644 | 0.635 | 0.584 | 0.593 | 0.578 | 0.575
100 µM, coculture fibroblast: Hs27A | 0.809 | 0.778 | 0.761 | 0.733 | 0.718 | 0.79 | 0.698 | 0.702 | 0.64
100 µM, coculture fibroblast: Hs343T | 0.845 | 0.78 | 0.734 | 0.672 | 0.648 | 0.601 | 0.599 | 0.587 | 0.594
100 µM, coculture fibroblast: WS1 | 0.77 | 0.7403 | 0.742 | 0.672 | 0.645 | 0.622 | 0.602 | 0.574 | 0.567

— the supplement of paper PMC6078165
